The target of this assay is NERCLIN-BirA* fusion protein (human). As to the kind of experiment: proximity labelling; BioID: NERCLIN-BirA* transiently expressed in 143B cells, biotin in the culture media for 24 h; biotinylated proteins extracted with streptavidin beads and analysed by mass spectrometry, four replicates; hits filtered against GFP-BirA*, AIF-BirA* and common matrix matches.

Results are given in words; binding and its absence hold for the method and conditions named. Binding seen in cells or lysates may run through a third protein. A yes stands for co-enrichment or nearness to the bait. Other partners may have been found. A no says only that the protein was not detected with the bait.

B1: GRPEL2 (protein, UniProt Q8TAA5 33-225)
chain: STATQRTAGEDCRSEDPPDELGPPLAERALRVKAVKLEKEVQDLTVRYQRAIADCENIRRRTQRCVEDAKIFGIQSFCKDLVEVADILEKTTECISEESEPEDQKLTLEKVFRGLLLLEAKLKSVFAKHGLEKLTPIGDKYDPHEHELICHVPAGVGVQPGTVALVRQDGYKLHGRTIRLARVEVAVESQRRL
Turning to B1, the binding result is listed as “no binding”.
